Among the data in publication PMC9261359 are binding values, retold here.

Protein sequences, listed by entry. Tags and fused reporters are not part of them.
UniProt P08670: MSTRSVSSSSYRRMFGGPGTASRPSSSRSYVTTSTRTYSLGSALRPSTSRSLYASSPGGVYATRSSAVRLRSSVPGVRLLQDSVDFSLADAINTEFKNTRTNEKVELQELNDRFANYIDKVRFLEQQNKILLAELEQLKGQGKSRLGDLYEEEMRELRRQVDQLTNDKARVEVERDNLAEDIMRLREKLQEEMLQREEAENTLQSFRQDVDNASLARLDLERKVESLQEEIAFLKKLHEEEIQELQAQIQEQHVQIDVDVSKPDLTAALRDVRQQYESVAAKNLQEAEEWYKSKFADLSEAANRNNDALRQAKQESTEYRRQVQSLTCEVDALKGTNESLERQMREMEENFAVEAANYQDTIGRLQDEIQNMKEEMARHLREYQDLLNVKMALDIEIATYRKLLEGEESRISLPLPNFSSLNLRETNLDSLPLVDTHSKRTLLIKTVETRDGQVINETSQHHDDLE

The target in this experiment is T1, Dectin-1 (human (endogenous in adipose tissue)) (UniProt Q9BXN2).
T1 sequence: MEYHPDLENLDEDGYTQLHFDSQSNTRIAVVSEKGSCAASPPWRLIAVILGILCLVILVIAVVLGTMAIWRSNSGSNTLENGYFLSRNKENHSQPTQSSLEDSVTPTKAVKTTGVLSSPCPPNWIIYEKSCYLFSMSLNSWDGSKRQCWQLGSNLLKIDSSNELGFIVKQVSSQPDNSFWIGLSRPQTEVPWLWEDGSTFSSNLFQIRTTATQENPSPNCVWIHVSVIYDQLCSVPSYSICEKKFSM
The experiment can be described thus: co-IP; Dectin-1 immunoprecipitated from human adipose tissue of obese individuals; western blot for vimentin. A general note: In western blotting, separated proteins are transferred to a membrane and probed.

These are yes or no findings as the source states them, for the method shown. Binding seen in cells or lysates may run through a third protein. Some results given as binding are weak or reduced against the parent protein; the word gives no strength.

For vimentin (from UniProt P08670 1-466), the binding result is “binds”.
